Experimental data: article PMC4978704
These are yes or no findings as the source states them, for the method shown. In cells and extracts the contact can be indirect. Some results given as binding are weak or reduced against the parent protein; the word gives no strength.

Sequences of proteins named here, by UniProt entry; tags and fusion partners are left off.
UniProt O15234: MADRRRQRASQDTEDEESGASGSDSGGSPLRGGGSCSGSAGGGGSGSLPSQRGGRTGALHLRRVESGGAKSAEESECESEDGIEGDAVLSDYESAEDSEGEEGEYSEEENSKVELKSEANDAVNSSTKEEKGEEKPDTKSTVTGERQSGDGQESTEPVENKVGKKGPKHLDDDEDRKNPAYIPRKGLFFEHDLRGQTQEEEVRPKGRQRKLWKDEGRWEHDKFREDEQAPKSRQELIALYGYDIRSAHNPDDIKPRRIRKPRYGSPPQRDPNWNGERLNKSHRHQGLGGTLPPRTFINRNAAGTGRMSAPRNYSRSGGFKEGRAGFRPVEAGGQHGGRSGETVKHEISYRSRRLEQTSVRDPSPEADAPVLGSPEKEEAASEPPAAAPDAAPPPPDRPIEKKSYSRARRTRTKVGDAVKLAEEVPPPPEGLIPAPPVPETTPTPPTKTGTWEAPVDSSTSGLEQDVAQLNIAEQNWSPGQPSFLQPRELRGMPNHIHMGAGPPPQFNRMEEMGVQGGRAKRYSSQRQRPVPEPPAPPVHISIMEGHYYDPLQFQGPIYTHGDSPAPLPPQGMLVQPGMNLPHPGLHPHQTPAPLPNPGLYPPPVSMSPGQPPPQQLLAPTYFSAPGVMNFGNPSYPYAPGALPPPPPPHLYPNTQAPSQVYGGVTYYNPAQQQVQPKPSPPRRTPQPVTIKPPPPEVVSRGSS
UniProt P38919: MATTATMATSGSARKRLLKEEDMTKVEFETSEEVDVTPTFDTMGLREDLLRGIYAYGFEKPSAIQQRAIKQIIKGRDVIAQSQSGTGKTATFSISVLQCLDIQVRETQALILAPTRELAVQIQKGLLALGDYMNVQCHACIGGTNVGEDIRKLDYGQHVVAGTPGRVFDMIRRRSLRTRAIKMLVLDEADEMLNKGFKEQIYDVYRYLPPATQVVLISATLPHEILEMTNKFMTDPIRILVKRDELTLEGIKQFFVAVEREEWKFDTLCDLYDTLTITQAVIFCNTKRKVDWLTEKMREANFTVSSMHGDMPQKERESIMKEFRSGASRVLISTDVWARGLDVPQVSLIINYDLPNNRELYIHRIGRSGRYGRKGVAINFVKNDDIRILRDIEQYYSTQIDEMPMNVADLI

Key:
[1] = target: BTZ-GFP (barentsz, GFP-tagged) (UniProt O15234); assay: co-IP; pull-down of the GFP-tagged bait from HeLa cell lysate, 150 and 250 mM NaCl; endogenous eIF4A3 and Y14 detected by immunoblot
[2] = target: BTZ-GFP (barentsz, GFP-tagged) (UniProt O15234); assay: co-IP; pull-down of the GFP-tagged bait from HeLa cell lysate, 500 mM NaCl; immunoblot

**Q.** With “eukaryotic translation initiation factor 4A3 (eIF4A3), endogenous (from UniProt P38919 1-411)” as the substance, how does the binding [1] read?
**A.** binds

**Q.** What about the binding [2] of the same substance?
**A.** no binding (condition: 500 mM NaCl)
